Source: doi:10.1101/2021.12.08.471779
Numbering of substitutions follows the chain as printed. No constants are given. Whether binding was seen depends on the method and setting. Binding seen in cells or lysates may run through a third protein. Some entries that bind do so weakly or less than the wild type.

By UniProt entry, the sequences of proteins in these tests, tags left out. Where a name states a change or a piece, a line headed by the entry shows the natural chain unless it says otherwise.
UniProt P02929, whole entry, looked up, stated change not applied: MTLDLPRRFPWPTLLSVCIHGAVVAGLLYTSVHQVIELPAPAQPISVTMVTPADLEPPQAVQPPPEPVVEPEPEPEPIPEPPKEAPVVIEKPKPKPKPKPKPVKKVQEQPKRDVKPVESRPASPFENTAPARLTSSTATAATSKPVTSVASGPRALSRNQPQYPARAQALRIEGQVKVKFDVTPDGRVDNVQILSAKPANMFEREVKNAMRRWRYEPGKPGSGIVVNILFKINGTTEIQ

Tests used:
Assay in all cases: cross-linking
[1] = target: T1, FepA E35C (Escherichia coli K-12) (UniProt P05825)
T1 sequence: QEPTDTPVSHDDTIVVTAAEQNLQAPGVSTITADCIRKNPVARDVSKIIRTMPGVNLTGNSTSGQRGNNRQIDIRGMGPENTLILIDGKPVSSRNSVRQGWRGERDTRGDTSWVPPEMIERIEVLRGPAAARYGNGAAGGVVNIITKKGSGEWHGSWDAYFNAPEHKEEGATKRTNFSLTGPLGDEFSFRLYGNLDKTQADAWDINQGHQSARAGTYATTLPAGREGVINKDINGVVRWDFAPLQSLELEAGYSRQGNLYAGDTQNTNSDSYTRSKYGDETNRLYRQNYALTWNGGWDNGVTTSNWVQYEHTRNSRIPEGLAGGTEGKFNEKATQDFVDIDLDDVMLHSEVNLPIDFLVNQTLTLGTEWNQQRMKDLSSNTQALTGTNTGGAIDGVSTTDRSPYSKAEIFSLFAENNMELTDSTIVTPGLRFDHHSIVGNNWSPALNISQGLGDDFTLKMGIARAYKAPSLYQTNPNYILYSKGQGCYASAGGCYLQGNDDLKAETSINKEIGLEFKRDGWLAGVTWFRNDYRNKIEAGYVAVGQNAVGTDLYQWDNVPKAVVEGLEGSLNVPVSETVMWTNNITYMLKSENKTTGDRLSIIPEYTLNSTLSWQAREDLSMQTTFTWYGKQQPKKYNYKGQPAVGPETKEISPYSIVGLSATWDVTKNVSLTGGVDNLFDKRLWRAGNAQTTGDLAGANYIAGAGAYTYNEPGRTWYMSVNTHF

[2] = target: T2, FepA A33C (Escherichia coli K-12) (UniProt P05825)
T2 sequence: T1 sequence with A33C, C35E

[3] = target: T3, FepA D519C (Escherichia coli K-12) (UniProt P05825)
T3 sequence: T1 sequence with C35E, D519C

| binding [1] | binding [2] | binding [3] | Substance |
| --- | --- | --- | --- |
| binds | binds | binds weakly | TonB C18G Q160C (from UniProt P02929 1-239) |
| no binding | no binding | no binding | TonB C18G A209C (from UniProt P02929 1-239) |
|  |  | binds | TonB C18G R212C (from UniProt P02929 1-239) |
| no binding | no binding | no binding | TonB C18G V206C (from UniProt P02929 1-239) |
|  |  | binds weakly | TonB C18G N208C (from UniProt P02929 1-239) |
| no binding | binds |  | TonB C18G R204C (from UniProt P02929 1-239) |
